# Assay results from PubChem BioAssay AID504706 (National Center for Advancing Translational Sciences (NCATS), 2011).
# The campaign covered roughly 320,000 compounds. About 200 (0.062%) were called active. Another 6% or so got no clear call; they are omitted. The call rests on the fitted dose curve; in most records, active means well fitted activation curve with a large enough effect; inconclusive means small, poorly fitted or top-dose-only effect; inactive means no such curve, though single readings can be large or run the other way. The entries are a selection whose mix differs from that of the whole data set. Where no call is shown, the source filed none.
# Experiment: qHTS assay for re-activators of p53 using a Luc reporter; further: nearly all actives have a fitted effect of over 45% in size; on activity change, positive = activation: % of control where 0% means no effect
# Settings: H1299 p53-A138V BP100-luciferase reporter, luminescence, 24 h; activity change, positive = activation: at 92.2 µM (top of the series)
# Summary of the method: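 H1299 (p53-null), stable ts p53-A138V + BP100-Luc; 1000 cells/well, Opti-MEM/10% FBS; cpd 4 pt, 1:5; 24 h, 37 deg C, 5% CO2; detection reagent 10 min RT; luminescence.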
# Potency means the concentration at half of the fitted maximal effect.
Compound,Potency,"activity change, positive = activation"
C=CCn1cc(/C=N/Nc2nc3ccccc3[nH]2)c2ccccc21,active: 31.6 µM,
COc1ccc([C@H]2CC(=O)C=C(/C=C/c3ccccc3)C2)cc1OC,,inactive: -30.1%
COc1ccc(-c2noc(CCCC(=O)O)n2)cc1,,inactive: -24.1%
Cc1ccc2nc(-c3ccc(NC(=O)COC(=O)c4ccco4)cc3)sc2c1,,99.5%
Oc1ccc(Cl)cc1C1=NNC(c2ccc(Cl)cc2)C1 (stereo unspecified),active: 28.2 µM,
Brc1ccc(-c2csc(-c3c[nH]c4ccccc34)n2)cc1,active: 44.7 µM,
COc1ccc(/C(C)=N/Nc2ccc(C(=O)O)cc2)cc1OC,,38.8%
O=C(CCN1C(=O)c2ccccc2C1=O)Nc1ccc(-c2nc3ccccc3s2)cc1,,54.4%
COC(=O)c1cc(NS(=O)(=O)c2ccc(N3CCC(C)CC3)c([N+](=O)[O-])c2)cc(C(=O)OC)c1,,34.5%
O=C(Nc1ccc2c(c1)OCCO2)c1c(F)cccc1F,active: 22.4 µM,
Cc1ccc(/C(N)=N/OC(=O)c2ccc(C)cc2Cl)cc1,,71.4%
COc1cccc(/C=C2/SC(=S)N(CCCC(=O)Nc3ccc(O)cc3)C2=O)c1,,inactive: -43%
CC(C)=CC(=O)Nc1nnc(-c2ccccc2)s1,,37.3%
CS(=O)(=O)c1ccc(Oc2ccc(-c3nnco3)cc2)c([N+](=O)[O-])c1,,46.8%
COc1ccc(NC(=O)C(NC(=O)Cc2cccs2)c2ccc(C)cc2)cc1 (stereo unspecified),,57.9%
O=S1(=O)C=C(Sc2nnc(-c3ccccc3)o2)c2ccccc21,,inactive: -36.1%
COc1ccc(-n2cnc3c(cnn3CCC#N)c2=N)cc1,,55.3%
Cc1ccc(NC(=O)c2ccccc2NS(=O)(=O)c2ccc(Cl)s2)cc1,,66%
Cc1cc(SCC(=O)c2ccc(Cl)cc2)nc(=O)[nH]1,,60.4%
O=C(c1ccccc1)n1c(=S)nc2ccccn21,,179%
Cc1cccnc1Nc1nc(-c2ccc(F)cc2)cs1,,49.6%
Cc1cc(N)n2nc(-c3ccc(C(C)(C)C)cc3)cc2n1,active: 11.2 µM,
CCOc1ccc2oc(C(=O)Nc3nccs3)c(C)c2c1,,48.4%
Cc1ccc(Cn2ncc(Cl)c(Cl)c2=O)cc1,,inactive: -32.5%

# In another format: 2 of the compounds above
Compound	Potency	activity change, positive = activation
COC(=O)c1cc(NS(=O)(=O)c2ccc(N3CCC(C)CC3)c([N+](=O)[O-])c2)cc(C(=O)OC)c1		34.5%
COc1ccc(-n2cnc3c(cnn3CCC#N)c2=N)cc1		55.3%

# Some of the entries so far, tab-delimited.
Compound	Potency	activity change, positive = activation
Cc1cc(N)n2nc(-c3ccc(C(C)(C)C)cc3)cc2n1	active: 11.2 µM	
CCOc1ccc2oc(C(=O)Nc3nccs3)c(C)c2c1		48.4%
Cc1ccc(Cn2ncc(Cl)c(Cl)c2=O)cc1		inactive: -32.5%

# (cont.)

Compound,Potency,"activity change, positive = activation"
O=C(Nc1ncc(Cc2ccccc2)s1)c1cccs1,,55.8%
NC(=O)c1c(NC(=O)c2cc3ccccc3o2)sc2c1CCC2,,142%
CCOc1cccc(-c2nc3cc(C)ccc3o2)c1,,71.1%
Nc1c(-c2ccc(Cl)cc2)cnc2c(-c3ccc(F)cc3)cnn12,,29.6%
CN1/C(=C/C(=O)c2nc(S(C)(=O)=O)ncc2Cl)C(C)(C)c2ccccc21,,inactive: -54.2%
Clc1ccc(-n2ncc3c(N4CCCC4)ncnc32)cc1,,185%
COc1ccc(/C=N/NC(=S)Nc2ccccc2[N+](=O)[O-])cc1O,,68%
O=[N+]([O-])c1ccccc1COc1ccc(Cl)c2cccnc12,,55.7%
Cc1ccc(/C=C/C(=O)c2ccc(O)cc2)cc1,active: 11.2 µM,
Cc1ccc(NC(=O)NC2CCCCC2)cc1Cl,,41.7%
Cc1ccc(C(=O)COC(=O)c2cccs2)cc1,,38.7%
O=C(COC(=O)c1cc(S(=O)(=O)N2CCc3ccccc3C2)ccc1Cl)NCc1ccco1,,48.4%
CCOC(=O)c1c(N)sc(C(=O)Nc2ccc3c(c2)OCO3)c1C,,39.8%
COc1cccc(NC(=O)c2ccc3c(c2)OCCO3)c1,,30.8%
Fc1ccccc1Nc1nc2ccccc2o1,,31.6%
O=C(O)COc1ccccc1/C=C1\C(=O)Nc2ccc(Br)cc21,,26.8%
Cn1c(-c2ccc(Br)o2)nc2ccccc21,,38.2%
O=C(CCNc1ccccc1)c1cccc([N+](=O)[O-])c1,,inactive: -32.1%
COc1ccc(/C=C2\SC(=O)N(CCc3nnc(N)s3)C2=O)cc1,,28.5%
CCCCn1c(SCC(=O)N2CCCC2=O)nc2cc(S(N)(=O)=O)ccc21,,112%
CC(=O)Oc1ccc(Cl)cc1/C=C/c1ccc2ccccc2n1,,123%
CCC(=O)Nc1cc2nn(-c3ccccc3)nc2cc1Cl,,31.4%
Fc1ccccc1/C=C/c1ccc2ccccc2n1,,25.3%
Clc1ccc(CSc2nc3ccncc3[nH]2)cc1,,50.6%

Compound,Potency,"activity change, positive = activation"
CCN(CC)c1ccc(/C=N/N2CCOCC2)cc1,,24.1%
c1ccc(-c2ccc(-c3nc(-c4ccncc4)no3)cc2)cc1,,60.9%
C/C(=N\NC(=O)c1csc(C)c1C)c1ccco1,active: 7.94 µM,
CC(=O)c1sc(NC(=O)c2oc3ccc(F)cc3c2C)nc1C,,32.3%
O=C(Nc1nc2ccccc2[nH]1)Nc1ccccc1F,active: 11.2 µM,
CCn1cnc2cc(NCc3nc4ccccc4n3Cc3ccccc3)ccc21,,56.4%
CCCCCCOC(=O)C[N+](C)(C)CCOC1CC2CCC1(C)C2(C)C (stereo unspecified),,inactive: -21.7%
CC(=O)Nc1ccc(/C=C/c2nc3ccccc3o2)cc1,,37.9%
COc1ccc(C2Nc3ccccc3C(=O)N2c2ccc(C)cc2)cc1COc1ccccn1 (stereo unspecified),,50.4%
Cc1nn(C)cc1/C=C/C(=O)c1cccs1,active: 20 µM,
COc1ccc(/C=N/Nc2ccccc2C(=O)O)cc1,,35.3%
Cc1nn(-c2ccccc2)c(Cl)c1/C=C/C(=O)c1ccc(O)cc1,active: 22.4 µM,
c1ccc(-c2noc(-c3cccc4ccccc34)n2)nc1,,56%
O=c1c2cc(F)ccc2sn1-c1ccccc1,,inactive: -37.4%
Cc1cccc(Sc2ccc([N+](=O)[O-])cc2[N+](=O)[O-])n1,,inactive: -31.2%
COCCN(C(=O)CCl)C(C(=O)NC1CCCCC1)c1ccccc1C (stereo unspecified),,inactive: -23.7%
COCCSc1ccccc1C(=O)Nc1cc(C)ccn1,,32.8%
CC[C@@H](C)[C@H](NC(=O)OC(C)(C)C)c1nnc(S(=O)(=O)Cc2cc(C)ccc2C)o1,,inactive: -27.2%
COc1ccc(-n2sc3ccc(F)cc3c2=O)cc1,,-37.7%
COc1ccc(OC2CCN(S(=O)(=O)c3cccc(F)c3)CC2)cc1,,27%
CCOc1ccc(CN2CCCC(CO)(Cc3ccc(F)cc3)C2)cc1 (stereo unspecified),,inactive: -65.7%
CN1/C(=C/C(=O)c2ccc(Cl)cc2)Sc2cc3c(cc21)OCO3,,46.6%
O=Cc1cc(Cl)ccc1OCCN1CCC(Cc2ccccc2)CC1,,inactive: -43.4%
O=C(NOCc1ccccc1)c1ccc([N+](=O)[O-])cc1,,68.4%

Compound,Potency,"activity change, positive = activation"
Cc1cccc(NC(=O)CSc2nc3ccccc3o2)c1,,37.4%
O=C(CSc1ccccc1)Nc1ccc(-c2nc3ccccc3[nH]2)cc1,,-31.1%
CC(=O)/C=C/n1c(=S)oc2ccccc21,,inactive: -26.3%
Cc1ccccc1NC(=O)/C=C/c1ccc([N+](=O)[O-])s1,,inactive: -35.4%
Nc1c(C(=O)Nc2cccc(F)c2)nnn1-c1ccc2c(c1)OCCO2,,47.8%
O=C(NNC(=O)c1ccc(Cl)cc1Cl)c1ccncc1,,66.8%
CC(C)Cc1nnc(NC(=O)c2ccc3c(c2)OCCO3)s1,,49.2%
CCN(CC)c1ccc(/C=C(\C#N)c2ccccn2)cc1,,32.3%
Cc1cc(NC(=O)c2ccc3c(c2)OCCO3)no1,,-26.3%
Cc1ccc(NC(=O)N2CCc3ccccc32)cc1,,100%
O=C(CN1CCN(c2ccc(Cl)cc2)CC1)Nc1ccc(F)cc1,,inactive: 2.08%
O=C1CSC(c2ccccc2)N1Cc1ccccn1 (stereo unspecified),,22.7%
CC(=O)Nc1ccc(N=Nc2ccccc2)cc1,,33.1%
O=C(Nc1ccc(/C=C/c2nc3ccccc3o2)cc1)c1c(F)cccc1F,,52.9%
Cc1cccc(-c2nnc(-c3ccccc3)o2)c1,active: 11.2 µM,
Nc1nc2c(-c3ccc(Br)cc3)nnn2c2ccccc12,,37.9%
COC(=O)c1ccc(Sc2nnnn2-c2ccccc2)c([N+](=O)[O-])c1,,inactive: -38.9%
COc1cc(OC)c(C(=O)Nc2ccc(C(=O)c3ccccc3)cc2)cc1OC,,inactive: -45.1%
O=C(CSc1nc(-c2ccccc2)cs1)Nc1cccc([N+](=O)[O-])c1,active: 35.5 µM,
Cc1ccnc(NC(=S)NC(=O)c2cccs2)c1,,129%
O=C(COc1ccccc1Cl)Nc1ccc(Cl)cn1,,44.8%
COc1cc(C(=O)OC(C)CN2CCCC2)cc(OC)c1OC (stereo unspecified),,33.4%
Cc1ccccc1CSc1ccc(-c2ccc3c(c2)OCO3)nn1,,58%
O=C(N/N=C1\CCc2ccccc21)c1ccccc1O,,166%

Compound,Potency,"activity change, positive = activation"
COCCn1c(C)cc(C(=O)CSc2nc3ccccc3c(=O)[nH]2)c1C,,31%
COC(=O)CNc1c(-c2ccccn2)nc2ccc(Br)cn12,,36.7%
O=C(COc1ccccc1F)Nc1ccc2c(c1)OCCO2,,29.4%
COc1ccc(C(=O)O/N=C(\N)c2ccccc2)c(OC)c1,,50.8%
O=C1C=C(c2ccc3ncccc3c2)C[C@@H](c2ccc(F)cc2)C1,,inactive: -40%
O=C(/C=C/c1ccccc1)NCCC1=CCCCC1,,84.7%
O=C(/C=C/c1ccccc1Cl)Nc1cccnc1,,41.4%
COc1ccc(-c2ccc(-c3nnn(CC(=O)N4CCOCC4)n3)cc2)cc1,,41.7%
Cc1ccccc1-c1nc2cc(NC(=O)C3CC3)ccc2o1,,37%
Cc1cccn2cc(-c3ccc(F)cc3)nc12,,72.6%
Cc1ccc(OCC(=O)c2cc(C)n(C3CC3)c2C)c([N+](=O)[O-])n1,,234%
Cc1ccc(C(=O)NC(=S)Nc2cccnc2Cl)cc1,,55.5%
Cc1ccc(S(=O)(=O)N(C)C)cc1NC(=O)COC(=O)CCC(=O)c1ccc(F)cc1,,50%
O=C(NCc1cccnc1)/C(=C\c1ccc(-c2ccc(Br)cc2)o1)S(=O)(=O)c1ccccc1,,inactive: -39.1%
Cc1ccccc1NC(=O)CSc1nc2ccccc2c(=O)n1C,,inactive: -52.9%
COc1ccccc1C(=O)CSc1nccn1C,,31.7%
CC(C)Nc1ncnc2c1cnn2-c1ccccc1,,65.6%
CCc1cc(C(=O)c2ccc(C)cc2)c(NC(=O)CCl)s1,,-23.2%
C=CC[C@@H](CC(=O)N(CCO)Cc1ccccc1)C(=O)N[C@H](COC(=O)[C@@H](CC=C)CC(=O)OC(C)(C)C)Cc1c[nH]c2ccccc12,,inactive: 1.74%
Cc1c(Cl)c([N+](=O)[O-])nn1CCCC(=O)Nc1sc2c(c1C(N)=O)CCC(C)C2 (stereo unspecified),,41.8%
